Reference: PubChem BioAssay AID504467 (National Center for Advancing Translational Sciences (NCATS), 2011)
Out of some 330,000 compounds screened, about 7,700 (2.3%) were called active. The inconclusive results got no clear call from the source; some entries with a clear call stand among them for comparison. The call rests on the fitted dose curve; in most records, active means well fitted inhibition curve with a large enough effect; inconclusive means small, poorly fitted or top-dose-only effect, or effect the other way; inactive means flat fitted curve, though single readings scatter. A potency beside an inconclusive call is a rough fit, not a confirmed value.
Potency means the concentration at half of the fitted maximal effect.

Test: qHTS screen for small molecules that inhibit ELG1-dependent DNA repair in human embryonic kidney (HEK293T) cells expressing luciferase-tagged ELG1; further: nearly all actives have a fitted effect of over 55% in size
Settings: HEK293T ELG1-luciferase reporter, luminescence, 16 h, DNA damage induced by 5-fluorouridine; series mostly up to 46.1 µM
Summary of the method: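 Cells (2,000 per well) received 5-fluorouridine plus test compound or DMSO and were incubated 16 hr at 37 °C, 5% CO2. Luciferase activity was read by luminescence 30 min after ONE-Glo addition; signal suppression marked inhibition of damage-induced ELG1 function.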
For `O=C(NCc1ccc2c(c1)OCO2)c1cc([N+](=O)[O-])ccc1N1CCCCC1`, the Potency was inconclusive: 5.17 µM [inhibitor, full curve]. In the case of `CCOC(=O)[C@@H]1[C@H]2COc3cc(OC)ccc3[C@@H]2N2C(=O)N(c3ccc(F)cc3)C(=O)[C@]12C`, the Potency is reported as “inactive”. In the case of `Fc1ccc(-n2nnc(-c3nccs3)n2)cc1`, the Potency is reported as inconclusive: 5.17 µM [activator, partial curve]. With `COc1ccc(C(=O)NC(=S)NNC(=O)c2ccc3ccccc3n2)cc1` the Potency was inconclusive: 18.3 µM [activator, single point]. For `O=C(COC(=O)CN1C(=O)c2ccccc2C1=O)Nc1ccccc1[N+](=O)[O-]`, the Potency was inconclusive: 20.6 µM [inhibitor, single point]. With `Cc1nc2ccccc2n1CC(=O)NN` the Potency was inconclusive: 2.91 µM [activator, single point]. With `Cc1ccc(Cl)cc1N1CCN(C(=O)COc2ccc(S(=O)(=O)NC(C)C)cc2)CC1` the Potency was active: 7.31 µM. In the case of `O=C(COC(=O)c1cc(=O)[nH]c2ccccc12)NCc1cccs1`, the Potency is reported as inconclusive: 7.3 µM [inhibitor, single point]. For `CCOC(=O)N1CCN(C(=O)COc2ccc(S(=O)(=O)Nc3ccc(OCC)cc3)cc2)CC1`, the Potency was inconclusive: 13 µM [inhibitor, single point]. With `Cc1ccc(-c2cn3cccc(C)c3n2)cc1` the Potency was inconclusive: 1.46 µM [activator, partial curve]. With `O=[N+]([O-])c1ccc(C(O)CSC(=S)N2CCCCC2)cc1` (stereo not drawn) the Potency was inconclusive: 3.66 µM [activator, single point]. With `O=C(Nc1ccc(N2CCOCC2)cc1)c1ccncc1` the Potency was inconclusive: 18.4 µM [activator, partial curve]. In the case of `Cc1ccc(-n2cccc2/C=C2\C(=N)N3N=C(C(C)C)SC3=NC2=O)cc1`, the Potency is reported as inconclusive: 25.9 µM [inhibitor, partial curve]. In the case of `CSc1nc(Cl)c(C#N)c(-c2ccc(C)cc2)n1`, the Potency is reported as inconclusive: 1.84 µM [inhibitor, partial curve, poor fit]. With `O=C(N/N=C/c1cc(Br)c(Br)o1)c1cc2ccccc2o1` the Potency was inconclusive: 20.6 µM [activator, partial curve, poor fit]. In the case of `COc1ccc(CNC(=O)C(=O)NCCC2CCCCN2S(=O)(=O)c2ccc(C)cc2)cc1` (stereo not drawn), the Potency is reported as inconclusive: 10.3 µM [inhibitor, partial curve, poor fit]. In the case of `COc1cc(/C=C/C(=O)N2CCOCC2)ccc1OCc1ccccc1`, the Potency is reported as inconclusive: 20.6 µM [inhibitor, partial curve, poor fit]. In the case of `Cc1cccc(-c2noc(CCC(=O)N3CCN(c4cc(C)ccc4C)CC3)n2)c1`, the Potency is reported as inconclusive: 4.11 µM [activator, full curve]. In the case of `Cc1ccc(C(=O)N/N=C/C2=Cc3ccccc3OC2C)cc1` (stereo not drawn), the Potency is reported as “inactive”. For `CCOc1ccc(NC(=O)c2cccnc2SC)cc1`, the Potency was inconclusive: 16.4 µM [activator, partial curve, poor fit]. In the case of `O=C(Cc1ccccc1[N+](=O)[O-])OCC(=O)c1c[nH]c2ccccc12`, the Potency is reported as inconclusive: 16.4 µM [activator, partial curve]. In the case of `Cc1cccc(NC(=S)NNC(=O)CCn2cc(C)cn2)c1`, the Potency is reported as “inactive”. With `O=C(c1ccccc1)n1ccc2ccccc21` the Potency was inconclusive: 23.1 µM [activator, single point]. For `COc1cc(SC)ccc1C(=O)NCCOc1ccccc1Cl`, the Potency was inconclusive: 9.2 µM [activator, partial curve]. In the case of `O=C(Cn1cnc2c(NC(=O)OCc3ccccc3)ncnc21)NCc1ccccn1`, the Potency is reported as “inactive”. In the case of `CCOc1ccccc1NC(=O)COn1nnc2ccccc21`, the Potency is reported as inconclusive: 16.4 µM [activator, single point]. For `CC(=O)N1CCN(C(=O)c2cc(=O)c3ccccc3o2)CC1`, the Potency was “inactive”. For `O=C(CNc1ccccc1)c1ccc([N+](=O)[O-])cc1`, the Potency was inconclusive: 20.6 µM [activator, single point]. For `CCOC(=O)C1=C(C)N=c2s/c(=C\c3cccn3C)c(=O)n2C1c1cccc(OC)c1OC` (stereo not drawn), the Potency was inconclusive: 16.4 µM [inhibitor, single point]. For `Cc1nc(C)c(-c2csc(Nc3cccc(O)c3)n2)s1`, the Potency was inconclusive: 6.51 µM [activator, single point]. In the case of `Cn1c(NCCCN2CCOCC2)nc2c1c(=O)n(Cc1ccc(Cl)cc1Cl)c(=O)n2C`, the Potency is reported as inconclusive: 32.6 µM [inhibitor, single point]. In the case of `COc1ccc(OC)c(/C=N/N(C)c2ccccc2)c1`, the Potency is reported as inconclusive: 8.2 µM [activator, partial curve]. With `COc1ccc(CNC(=O)Cc2ccc(NC(=O)C3=C(C)OCCS3)cc2)cc1` the Potency was inconclusive: 23.1 µM [activator, partial curve]. With `CCC(Sc1nnnn1-c1ccccc1)C(=O)Nc1nc2ccccc2s1` (stereo not drawn) the Potency was inconclusive: 29.1 µM [inhibitor, single point]. For `COc1ccc2c(=O)c(-c3ccccc3)c(C)oc2c1`, the Potency was inconclusive: 23.1 µM [activator, single point]. In the case of `COc1ccc(/C=N/NC(=O)c2ccccc2)cc1CN1CCN(c2ccc(F)cc2)CC1`, the Potency is reported as inconclusive: 29.1 µM [inhibitor, single point]. For `Cc1ccc(-n2ncc3c(N4CCC(C(N)=O)CC4)ncnc32)c(C)c1`, the Potency was “inactive”. For `O=c1[nH]c2ccc(NCc3ccccc3OCc3ccc(Cl)cc3)cc2[nH]1`, the Potency was active: 8.2 µM. In the case of `COc1cccc(-n2nnc3c(=O)n(CC(=O)Nc4ccc(C)cc4)cnc32)c1`, the Potency is reported as “inactive”. In the case of `COc1ccc(OC)c(/C=N\NC(=O)c2c(C)nc3cc(C)ccn23)c1`, the Potency is reported as “inactive”. With `COC(=O)C(C)NC(=O)C12CC3CC(C1)CC(c1ccc(C)cc1)(C3)C2` (stereo not drawn) the Potency was “inactive”. For `CCCC(=O)C1=C(O)C(C(=O)OC)C(C)(C)CC1=Nc1cccc2ccccc12` (stereo not drawn), the Potency was inconclusive: 18.4 µM [inhibitor, single point]. For `CCOC(=O)CNC(=O)c1sc(NC(=O)/C=C/c2ccccc2)nc1C`, the Potency was inconclusive: 18.3 µM [activator, partial curve, poor fit]. With `O=c1cc(/C=C/c2ccccc2)oc2c1ccc1ccccc12` the Potency was active: 18.4 µM. For `CCCCc1nc2cc(C(=O)N3CCN(c4cnccn4)CC3)ccc2o1`, the Potency was “inactive”. With `O=C(OCC(=O)N1CCC(Cc2ccccc2)CC1)c1ccc[nH]c1=O` the Potency was “inactive”. For `O=C(O)Cn1cnc2scc(-c3ccccc3)c2c1=O`, the Potency was “inactive”. For `C=C(NC(=O)C(=C)NC(=O)c1csc(C2=NC3c4csc(n4)C4NC(=O)c5csc(n5)C([C@@](C)(O)C(C)O)NC(=O)C5CSC(=N5)/C(=C\C)NC(=O)C(C(C)O)NC(=O)c5csc(n5)[C@]3(CC2)NC(=O)C(C)NC(=O)C(=C)NC(=O)C(C)NC(=O)C(C(C)CC)NC2C=Cc3c(C(C)O)cc(nc3C2O)C(=O)OC4C)n1)C(N)=O` (stereo partly drawn), the Potency was active: 5.17 µM. In the case of `O=C(Nc1cnn(C23CC4CC(CC(C4)C2)C3)c1)c1cnn2cccnc12`, the Potency is reported as inconclusive: 1.84 µM [activator, full curve]. For `O=C(Nc1ccc(F)cc1F)N1CCCN(c2ccc([N+](=O)[O-])cn2)CC1`, the Potency was inconclusive: 23.1 µM [inhibitor, partial curve, poor fit]. For `CCOc1ccccc1NC(=O)Nc1cccc(C(C)=O)c1`, the Potency was “inactive”. With `CC(C)C(=O)NC(=S)Nc1ccccn1` the Potency was “inactive”. In the case of `O=C(c1cccnc1)C1CCCN(Cc2nc(Cc3ccccc3)no2)C1` (stereo not drawn), the Potency is reported as “inactive”. In the case of `Clc1ccc(-n2nnc(-c3cccnc3Cl)n2)cc1Cl`, the Potency is reported as inconclusive: 7.3 µM [activator, partial curve]. With `COc1ccc2cc(C(=O)C3CCCN(C(=O)c4cc(=O)n(C)c(=O)n4C)C3)ccc2c1` (stereo not drawn) the Potency was inconclusive: 20.6 µM [inhibitor, single point]. In the case of `O=C(O)/C=C/C(=O)Nc1ccccc1SC(F)(F)F`, the Potency is reported as “inactive”. With `CC1CCC(NC(=O)c2cc(Cl)nc3ccccc23)CC1` (stereo not drawn) the Potency was inconclusive: 35.5 µM [activator, single point]. With `Cc1ccsc1CNc1ncnc2ccc(-c3c(C)noc3C)cc12` the Potency was inconclusive: 3.26 µM [activator, full curve]. With `O=C(CSCc1ccc(F)cc1)NC1CCCC1` the Potency was inconclusive: 7.31 µM [activator, partial curve, poor fit]. In the case of `Cc1nn(-c2ccccc2)c(C)c1/C=N/NC(=O)c1ccccc1O`, the Potency is reported as inconclusive: 18.3 µM [activator, single point]. For `CC1(C)Cc2c(c(-c3ccccc3Cl)[nH]c(=O)c2C#N)CO1`, the Potency was “inactive”. In the case of `Cc1ccc(NC(=O)CCc2nc3ccccc3c(=O)[nH]2)cc1S(=O)(=O)N1CCOCC1`, the Potency is reported as inconclusive: 7.3 µM [inhibitor, partial curve, poor fit]. With `COc1ccc(S(=O)(=O)NCCc2c[nH]c3ccc(C)cc23)cc1` the Potency was “inactive”. For `CC(=O)c1cccc(NC(=O)N2CCCC2C(=O)Nc2ccc3c(c2)OCCO3)c1` (stereo not drawn), the Potency was inconclusive: 18.3 µM [activator, single point]. For `O=C(NCc1ccco1)c1ccc(Cn2c(=O)c3sccc3n(Cc3ccc(F)cc3)c2=O)cc1`, the Potency was inconclusive: 13 µM [inhibitor, partial curve, poor fit]. With `Cc1ccc2c(Cl)cc(Cl)c(OCC(=O)N3CCCC3)c2n1` the Potency was “inactive”. For `CCOC(=O)/C(N=Nc1sc(C(=O)OC)c(C)c1C(=O)OCC)=C(\O)CCl`, the Potency was “inactive”. With `O=C(COC(=O)c1cnccn1)c1cccc([N+](=O)[O-])c1` the Potency was inconclusive: 29.1 µM [inhibitor, single point].
